Measured values taken from publication PMC11599123.
Results are given in words; binding and its absence hold for the method and conditions named. In cells and extracts the contact can be indirect. Binding can be weak; no strength is given.

Sequences of proteins named here, by UniProt entry; tags and fusion partners are left off. A change or cut given only in a name is not applied to a line headed by its entry.
UniProt Q13153: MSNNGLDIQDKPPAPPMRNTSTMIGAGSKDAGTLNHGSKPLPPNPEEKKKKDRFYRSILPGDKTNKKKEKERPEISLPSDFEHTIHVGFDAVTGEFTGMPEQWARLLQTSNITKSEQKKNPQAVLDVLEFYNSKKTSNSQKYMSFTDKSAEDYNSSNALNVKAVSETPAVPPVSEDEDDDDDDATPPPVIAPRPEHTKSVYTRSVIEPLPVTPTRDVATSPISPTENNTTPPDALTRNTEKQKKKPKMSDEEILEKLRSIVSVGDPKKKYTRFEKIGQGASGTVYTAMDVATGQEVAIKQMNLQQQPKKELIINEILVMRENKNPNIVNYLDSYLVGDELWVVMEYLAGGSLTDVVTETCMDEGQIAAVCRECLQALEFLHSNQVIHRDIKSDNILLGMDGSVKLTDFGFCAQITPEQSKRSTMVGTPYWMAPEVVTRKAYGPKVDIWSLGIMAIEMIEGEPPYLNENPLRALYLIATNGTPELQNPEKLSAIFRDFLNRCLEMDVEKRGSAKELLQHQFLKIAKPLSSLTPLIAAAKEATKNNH
UniProt Q8C6B2: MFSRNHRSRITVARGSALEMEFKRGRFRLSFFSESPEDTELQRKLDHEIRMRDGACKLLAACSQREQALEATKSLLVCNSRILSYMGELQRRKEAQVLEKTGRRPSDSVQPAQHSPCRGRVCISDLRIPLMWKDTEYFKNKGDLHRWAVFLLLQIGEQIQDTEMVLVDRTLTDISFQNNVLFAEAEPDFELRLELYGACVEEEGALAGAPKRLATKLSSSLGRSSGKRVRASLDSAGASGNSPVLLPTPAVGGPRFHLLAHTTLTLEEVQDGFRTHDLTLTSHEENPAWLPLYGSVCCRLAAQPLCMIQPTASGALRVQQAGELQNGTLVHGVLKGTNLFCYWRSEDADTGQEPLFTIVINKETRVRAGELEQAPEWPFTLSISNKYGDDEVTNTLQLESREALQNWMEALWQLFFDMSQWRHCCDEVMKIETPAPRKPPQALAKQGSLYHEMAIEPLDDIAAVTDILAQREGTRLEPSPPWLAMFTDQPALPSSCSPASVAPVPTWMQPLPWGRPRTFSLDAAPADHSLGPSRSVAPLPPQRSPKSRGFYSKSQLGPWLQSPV
UniProt Q8CFN2: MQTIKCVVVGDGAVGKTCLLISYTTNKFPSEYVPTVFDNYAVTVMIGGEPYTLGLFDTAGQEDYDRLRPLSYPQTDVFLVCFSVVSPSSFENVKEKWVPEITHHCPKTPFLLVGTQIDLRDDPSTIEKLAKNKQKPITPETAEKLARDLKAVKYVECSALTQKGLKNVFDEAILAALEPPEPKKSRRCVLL
UniProt P61589: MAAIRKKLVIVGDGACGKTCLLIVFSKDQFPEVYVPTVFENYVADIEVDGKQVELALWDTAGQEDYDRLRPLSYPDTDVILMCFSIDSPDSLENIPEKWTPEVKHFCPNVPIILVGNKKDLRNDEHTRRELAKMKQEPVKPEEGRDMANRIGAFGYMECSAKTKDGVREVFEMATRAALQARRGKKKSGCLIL

Columns and labels:
[1] = target: GST-PBD (p21-binding domain of PAK1) (UniProt Q13153); assay: pull-down; Rho activation assay: GST-PBD, GST-RBD or GST-ELMO immobilised on glutathione agarose beads, RBL-2H3 lysates (resting or antigen-stimulated; WT, scrambled, RhoGDI knockdown or overexpression strains), 30 min in 50 mM Tris pH 7.5, 150 mM NaCl, 0.5 mM MgCl2, 1% Triton X-100; immunoblot; only the target purified
[2] = target: GST-RBD (Rho-binding domain of Rhotekin) (UniProt Q8C6B2); assay: as above

Substance	binding [1]	binding [2]
Cdc42, endogenous in RBL-2H3 cells (from UniProt Q8CFN2 1-191)	binds	
RhoA, endogenous in RBL-2H3 cells (from UniProt P61589 1-193)		binds
